Laboratory results as given in the supplement of paper PMC7877785.
± gives the uncertainty stated by the source. Many entries were measured with a wide error.

Assay: self-splicing fitness, log relative to wild type (ln ratio); higher = more splicing; Tetrahymena group I intron in knt gene, E. coli kanamycin selection, DiMSum; sequences stand for … in CUCUCU…GGAGGGAAAAGUUAUCAGGCAUGCACCUGGUAGCUAGUCUUUAAACCAAUAGAUUGCAUCGGUUUAAAAGGCAAGACCGUCAAAUUGCGGGAAAGGGGUCAACAGCCGUUCAGUACCAAGUCUCAGGGGAAACUUUGAGAUGGCCUUGCAAAGGGUAUGGUAAUAAGCUGACGGACAUGGUCCUAACCACGCAGCCAAGUCCUAAGUCAACAGAUCUUCUGUUGAUAUGGAUGCAGUUCACAGACUAAAUGUCGGUCGGGGAAGAUGUAUUCUUCUCAUAAGAUAUAGUCGGACCUCUCCUUAAUGGGAGCUAGCGGAUGAAGUGAUGCAACACUGGAGCCGCUGGGAACUAAUUUGUAUGCGAAAGUAUAUUGAUUAGUUUUGGAGUACUCGUGGUCG
Summary of the method: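 Library with all eight P1ex-region intron nucleotides randomised, intron inside the knt kanamycin-resistance gene on pET-22b(+), in E. coli BL21(DE3). Cells grew overnight at 37°C or 30°C on LB agar with or without 25 μg/mL kanamycin (plus 100 μg/mL carbenicillin, 50 μM IPTG, 0.2% rhamnose), in six replicate transformations. Pooled colonies were amplicon-sequenced on Illumina HiSeq 2500. DiMSum fitness is the error-weighted combination of wild-type-normalised replicate fold changes, kanamycin versus none.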

Row | Sequence | self-splicing fitness (ln) (37 °C) | self-splicing fitness (ln) (30 °C)
1 | UGAGAGCAAUAUUACGUGUA | -3.64 ± 0.73 | 
2 | UCAAAGCAAUAUUACGUCCG | -0.625 ± 0.16 | -0.781 ± 0.12
3 | GGGGAGCAAUAUUACGCGAC | -0.101 ± 0.82 | 
4 | UCUGAGCAAUAUUACGCUCU | -1.81 ± 0.67 | 
5 | ACUUAGCAAUAUUACGCACG | -0.683 ± 0.13 | -1.55 ± 0.1
6 | AAGGAGCAAUAUUACGGAUG | -3.29 ± 0.35 | -3.8 ± 0.21
7 | GGUGAGCAAUAUUACGCUAG |  | -3.13 ± 0.74
8 | CCGAAGCAAUAUUACGGUAC |  | -4.23 ± 0.73
9 | AGUCAGCAAUAUUACGAUAU | 0.475 ± 0.11 | -0.289 ± 0.096
10 | AGAGAGCAAUAUUACGGCGC |  | -2.65 ± 1.1
11 | GGUAAGCAAUAUUACGCUUA |  | -3.29 ± 0.53
12 | GGAGAGCAAUAUUACGAGUU | -4.34 ± 0.51 | 
13 | AGAGAGCAAUAUUACGUCGA | -2.74 ± 0.53 | 
14 | UAGUAGCAAUAUUACGCGGU | -3.31 ± 0.52 | -3.86 ± 0.72
15 | UCAAAGCAAUAUUACGAGGC |  | -3.58 ± 0.52
16 | UCUAAGCAAUAUUACGCAAU |  | -3.57 ± 1
17 | GUGAAGCAAUAUUACGAGGA |  | -3.03 ± 0.54
18 | AGAAAGCAAUAUUACGUACC | 0.446 ± 0.12 | -0.284 ± 0.087
19 | UAGAAGCAAUAUUACGCUAC |  | -4.14 ± 0.72
20 | AUGUAGCAAUAUUACGAAGA |  | -3.63 ± 0.73
21 | CGGUAGCAAUAUUACGUCAA | -1.18 ± 0.52 | 

2 records drawn at random from those above:
Row | Sequence | self-splicing fitness (ln) (37 °C) | self-splicing fitness (ln) (30 °C)
9 | AGUCAGCAAUAUUACGAUAU | 0.475 ± 0.11 | -0.289 ± 0.096
12 | GGAGAGCAAUAUUACGAGUU | -4.34 ± 0.51 | 

Carrying on.

Row | Sequence | self-splicing fitness (ln) (37 °C) | self-splicing fitness (ln) (30 °C)
22 | GUCGAGCAAUAUUACGUCCU | -0.735 ± 1 | -1.68 ± 0.82
23 | CUGGAGCAAUAUUACGUGCC | -1.47 ± 1.2 | 
24 | CGGAAGCAAUAUUACGGGCC | -2.89 ± 0.61 | -2.94 ± 0.51
25 | CUGGAGCAAUAUUACGAGGU | -2.11 ± 0.17 | -3.48 ± 0.23
26 | GUAGAGCAAUAUUACGGCGG | -1.99 ± 0.18 | -1.86 ± 0.12
27 | UCCGAGCAAUAUUACGCCAU | -3.16 ± 0.4 | -2.56 ± 0.28
28 | CCUUAGCAAUAUUACGAAUU |  | -5.01 ± 0.72
29 | GAUUAGCAAUAUUACGAGAC | -1.1 ± 0.22 | -1.51 ± 0.3
30 | UCUAAGCAAUAUUACGUCUC | -3.38 ± 0.4 | 
31 | GUGGAGCAAUAUUACGUACC | -1.01 ± 0.53 | -2.79 ± 0.57
32 | GAUUAGCAAUAUUACGCAUC | -3.6 ± 0.73 | 
33 | GGGAAGCAAUAUUACGCCCC | 0.608 ± 1.1 | 
34 | ACAAAGCAAUAUUACGUAUU | -1.18 ± 0.11 | -1.94 ± 0.086
35 | CCGGAGCAAUAUUACGAAAA |  | -3.6 ± 0.75
36 | CCAGAGCAAUAUUACGGGCU | -3.65 ± 0.59 | 
37 | UUGAAGCAAUAUUACGAACC | -1.77 ± 0.44 | -1.68 ± 0.24
38 | UCUUAGCAAUAUUACGCGGA |  | -2.79 ± 0.62
39 | GUAGAGCAAUAUUACGGAGG |  | -3.36 ± 0.64
40 | CUUAAGCAAUAUUACGCUGC |  | -4.13 ± 0.61
41 | CUGGAGCAAUAUUACGACUC |  | -0.525 ± 0.72
42 | UAGGAGCAAUAUUACGAUAA | -1 ± 0.78 | 

Row | Sequence | self-splicing fitness (ln) (37 °C) | self-splicing fitness (ln) (30 °C)
43 | GUUUAGCAAUAUUACGCACG | 0.181 ± 0.84 | 
44 | UCUCAGCAAUAUUACGACGC |  | -2.44 ± 0.63
45 | GACGAGCAAUAUUACGUCAG |  | -4.43 ± 0.52
46 | CCAGAGCAAUAUUACGUAUA |  | -4.6 ± 0.51
47 | GCAGAGCAAUAUUACGACCG | -1.53 ± 0.55 | 
48 | UCUAAGCAAUAUUACGUUUC |  | -4.52 ± 0.51
49 | UCGCAGCAAUAUUACGGCUA | 0.317 ± 0.098 | 0.198 ± 0.091
50 | AUGGAGCAAUAUUACGUGCU |  | -3.19 ± 1.2
51 | CAAGAGCAAUAUUACGGGCU |  | -3.07 ± 0.67
52 | UUGAAGCAAUAUUACGUAUC |  | -5.62 ± 1
53 | CGAGAGCAAUAUUACGACCC | -0.778 ± 1.4 | 
54 | UGCGAGCAAUAUUACGGCUG | -0.349 ± 0.15 | -1.04 ± 0.1
55 | CUGCAGCAAUAUUACGCAAC | -4.08 ± 1 | -5.2 ± 1
56 | UCUUAGCAAUAUUACGAUCC | 0.000402 ± 0.62 | 
57 | CAAUAGCAAUAUUACGUGAG | 0.678 ± 0.11 | -0.424 ± 0.076
58 | CAGGAGCAAUAUUACGGCGG | -0.0448 ± 0.091 | -0.542 ± 0.074
59 | CGGGAGCAAUAUUACGAAAA | -1.43 ± 0.55 | -2.56 ± 0.65
60 | GCCCAGCAAUAUUACGCUGC |  | -4.66 ± 1
61 | UAGGAGCAAUAUUACGCCCC |  | -2.79 ± 1.2
62 | AGUGAGCAAUAUUACGCUGG |  | -4.44 ± 0.6
